Results are given in words; binding and its absence hold for the method and conditions named. Binding seen in cells or lysates may run through a third protein. Some entries that bind do so weakly or less than the wild type.
Molecular target: p53 (rat (endogenous in H9C2)) (UniProt P10361)
Test: co-IP; H9C2 cell extract incubated with anti-p53 antibody or control IgG1 antibody at 4°C overnight, Protein G magnetic beads 30 min at 4°C, washed 5 times, immunoblot; cells treated with DOX with or without QSG

Amino acid sequences for entries named in this document (tags omitted).
UniProt P10361: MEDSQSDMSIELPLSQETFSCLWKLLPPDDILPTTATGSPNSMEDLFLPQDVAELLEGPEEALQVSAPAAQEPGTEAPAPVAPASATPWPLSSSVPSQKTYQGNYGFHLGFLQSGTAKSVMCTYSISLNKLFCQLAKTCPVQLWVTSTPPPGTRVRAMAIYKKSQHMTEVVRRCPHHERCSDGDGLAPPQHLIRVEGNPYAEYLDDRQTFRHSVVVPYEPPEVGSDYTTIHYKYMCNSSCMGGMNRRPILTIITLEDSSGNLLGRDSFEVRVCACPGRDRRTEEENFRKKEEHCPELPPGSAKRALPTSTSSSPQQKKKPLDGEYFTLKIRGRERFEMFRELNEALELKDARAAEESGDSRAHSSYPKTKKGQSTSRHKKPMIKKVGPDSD
UniProt Q9JK66: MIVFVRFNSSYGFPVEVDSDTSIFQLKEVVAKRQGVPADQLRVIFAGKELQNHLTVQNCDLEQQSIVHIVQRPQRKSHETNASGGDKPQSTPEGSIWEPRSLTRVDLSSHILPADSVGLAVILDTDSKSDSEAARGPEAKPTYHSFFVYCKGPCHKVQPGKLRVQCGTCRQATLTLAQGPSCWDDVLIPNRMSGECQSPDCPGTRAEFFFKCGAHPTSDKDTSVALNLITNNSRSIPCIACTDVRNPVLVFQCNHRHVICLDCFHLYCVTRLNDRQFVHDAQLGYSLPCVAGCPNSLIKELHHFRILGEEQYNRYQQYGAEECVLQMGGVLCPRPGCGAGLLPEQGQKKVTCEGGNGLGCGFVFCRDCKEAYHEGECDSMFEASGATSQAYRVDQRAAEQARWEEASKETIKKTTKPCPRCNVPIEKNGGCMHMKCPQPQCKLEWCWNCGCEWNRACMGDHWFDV

binding: binds
Substance: Parkin (from UniProt Q9JK66 1-465)
